From the supplement of paper PMC6411743
± gives the standard deviation of the averaged measurements. This is one part of the list.

The chains behind the UniProt entries cited, without tags or fusion partners. Where a name states a change or a piece, a line headed by the entry shows the natural chain unless it says otherwise.
UniProt Q96G01: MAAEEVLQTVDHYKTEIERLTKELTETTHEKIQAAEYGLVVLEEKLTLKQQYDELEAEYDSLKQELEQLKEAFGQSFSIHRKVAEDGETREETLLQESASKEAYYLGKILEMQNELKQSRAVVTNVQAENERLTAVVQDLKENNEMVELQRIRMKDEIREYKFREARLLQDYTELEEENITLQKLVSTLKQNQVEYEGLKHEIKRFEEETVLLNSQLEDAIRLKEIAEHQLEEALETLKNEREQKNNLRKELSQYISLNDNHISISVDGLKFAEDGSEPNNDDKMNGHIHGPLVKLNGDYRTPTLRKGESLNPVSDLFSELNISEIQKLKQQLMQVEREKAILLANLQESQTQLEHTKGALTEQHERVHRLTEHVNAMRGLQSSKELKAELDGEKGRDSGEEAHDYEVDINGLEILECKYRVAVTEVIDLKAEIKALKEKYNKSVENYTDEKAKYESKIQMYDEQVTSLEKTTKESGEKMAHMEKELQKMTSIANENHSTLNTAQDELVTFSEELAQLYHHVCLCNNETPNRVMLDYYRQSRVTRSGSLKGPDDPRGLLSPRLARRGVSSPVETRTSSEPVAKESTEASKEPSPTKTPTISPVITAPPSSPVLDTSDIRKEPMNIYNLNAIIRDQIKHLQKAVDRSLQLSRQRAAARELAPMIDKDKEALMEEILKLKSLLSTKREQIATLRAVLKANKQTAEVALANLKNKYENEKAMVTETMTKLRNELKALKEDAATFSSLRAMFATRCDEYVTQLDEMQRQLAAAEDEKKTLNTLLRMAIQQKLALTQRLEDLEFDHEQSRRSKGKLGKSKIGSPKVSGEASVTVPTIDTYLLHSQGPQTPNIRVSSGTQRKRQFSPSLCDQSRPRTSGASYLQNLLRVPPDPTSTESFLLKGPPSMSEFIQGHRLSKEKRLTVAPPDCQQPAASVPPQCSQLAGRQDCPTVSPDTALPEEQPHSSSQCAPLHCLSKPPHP
UniProt Q9NTI5: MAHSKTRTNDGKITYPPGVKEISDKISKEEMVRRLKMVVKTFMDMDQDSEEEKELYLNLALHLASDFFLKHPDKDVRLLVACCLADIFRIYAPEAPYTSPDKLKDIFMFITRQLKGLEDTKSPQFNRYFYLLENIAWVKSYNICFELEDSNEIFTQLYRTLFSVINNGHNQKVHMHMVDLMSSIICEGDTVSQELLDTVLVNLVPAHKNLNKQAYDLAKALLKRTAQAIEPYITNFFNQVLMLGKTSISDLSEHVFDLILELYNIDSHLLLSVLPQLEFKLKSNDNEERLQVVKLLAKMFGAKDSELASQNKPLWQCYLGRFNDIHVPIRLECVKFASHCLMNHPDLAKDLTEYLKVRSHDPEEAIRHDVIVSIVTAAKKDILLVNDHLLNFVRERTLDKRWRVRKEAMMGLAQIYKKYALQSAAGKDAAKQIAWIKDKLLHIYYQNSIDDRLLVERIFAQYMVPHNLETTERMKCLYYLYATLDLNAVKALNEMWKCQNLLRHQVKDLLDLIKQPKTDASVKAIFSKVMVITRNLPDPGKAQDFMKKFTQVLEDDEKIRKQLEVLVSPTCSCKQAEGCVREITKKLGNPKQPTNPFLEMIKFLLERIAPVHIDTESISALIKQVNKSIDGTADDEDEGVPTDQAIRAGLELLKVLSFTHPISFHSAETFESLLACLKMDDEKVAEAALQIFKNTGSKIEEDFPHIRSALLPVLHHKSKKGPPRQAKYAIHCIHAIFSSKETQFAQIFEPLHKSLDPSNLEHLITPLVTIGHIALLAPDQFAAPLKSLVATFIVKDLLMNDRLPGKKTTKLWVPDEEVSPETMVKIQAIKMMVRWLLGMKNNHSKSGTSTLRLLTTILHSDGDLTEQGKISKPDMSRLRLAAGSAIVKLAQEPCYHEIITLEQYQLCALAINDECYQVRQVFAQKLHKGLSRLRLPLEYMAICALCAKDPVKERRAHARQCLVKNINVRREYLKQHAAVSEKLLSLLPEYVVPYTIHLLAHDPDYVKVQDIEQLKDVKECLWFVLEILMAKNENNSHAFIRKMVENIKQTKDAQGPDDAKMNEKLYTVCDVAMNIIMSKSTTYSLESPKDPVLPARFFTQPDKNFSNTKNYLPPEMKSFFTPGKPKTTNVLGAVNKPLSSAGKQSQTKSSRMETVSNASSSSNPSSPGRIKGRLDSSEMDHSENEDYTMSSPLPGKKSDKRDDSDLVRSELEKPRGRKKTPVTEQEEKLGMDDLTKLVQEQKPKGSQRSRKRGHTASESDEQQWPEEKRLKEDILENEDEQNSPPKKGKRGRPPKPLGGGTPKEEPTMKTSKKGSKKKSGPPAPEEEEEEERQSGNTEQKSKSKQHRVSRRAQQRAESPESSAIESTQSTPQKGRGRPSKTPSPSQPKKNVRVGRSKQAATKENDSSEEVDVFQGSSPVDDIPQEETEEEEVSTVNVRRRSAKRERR
UniProt O15182: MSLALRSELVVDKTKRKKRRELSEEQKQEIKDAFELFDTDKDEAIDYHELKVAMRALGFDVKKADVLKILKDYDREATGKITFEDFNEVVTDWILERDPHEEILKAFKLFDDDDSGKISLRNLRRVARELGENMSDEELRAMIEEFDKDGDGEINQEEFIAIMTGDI
UniProt O94925: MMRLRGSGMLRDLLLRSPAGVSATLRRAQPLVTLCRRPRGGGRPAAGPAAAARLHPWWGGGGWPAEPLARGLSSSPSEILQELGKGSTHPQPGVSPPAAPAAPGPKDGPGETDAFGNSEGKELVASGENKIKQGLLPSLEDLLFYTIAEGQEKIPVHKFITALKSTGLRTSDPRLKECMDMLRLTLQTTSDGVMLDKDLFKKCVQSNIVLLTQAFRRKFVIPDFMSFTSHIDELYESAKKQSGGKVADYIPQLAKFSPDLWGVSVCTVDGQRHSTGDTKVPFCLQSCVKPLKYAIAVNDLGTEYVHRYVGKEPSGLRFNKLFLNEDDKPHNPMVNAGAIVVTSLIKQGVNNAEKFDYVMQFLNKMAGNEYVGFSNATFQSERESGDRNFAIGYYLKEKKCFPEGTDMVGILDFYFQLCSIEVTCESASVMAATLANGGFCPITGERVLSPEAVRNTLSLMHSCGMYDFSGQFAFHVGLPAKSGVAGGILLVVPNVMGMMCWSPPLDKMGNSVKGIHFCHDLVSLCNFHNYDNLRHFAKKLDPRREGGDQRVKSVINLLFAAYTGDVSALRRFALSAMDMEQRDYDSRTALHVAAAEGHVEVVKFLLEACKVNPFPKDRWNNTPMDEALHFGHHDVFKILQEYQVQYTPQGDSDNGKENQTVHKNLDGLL
UniProt Q9UNT1: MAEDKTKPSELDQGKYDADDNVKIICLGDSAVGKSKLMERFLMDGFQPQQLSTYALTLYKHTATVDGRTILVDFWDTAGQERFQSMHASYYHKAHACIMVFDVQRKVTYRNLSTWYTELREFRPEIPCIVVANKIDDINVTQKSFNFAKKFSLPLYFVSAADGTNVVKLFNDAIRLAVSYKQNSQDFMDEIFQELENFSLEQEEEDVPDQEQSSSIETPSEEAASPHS
UniProt Q9UBK7: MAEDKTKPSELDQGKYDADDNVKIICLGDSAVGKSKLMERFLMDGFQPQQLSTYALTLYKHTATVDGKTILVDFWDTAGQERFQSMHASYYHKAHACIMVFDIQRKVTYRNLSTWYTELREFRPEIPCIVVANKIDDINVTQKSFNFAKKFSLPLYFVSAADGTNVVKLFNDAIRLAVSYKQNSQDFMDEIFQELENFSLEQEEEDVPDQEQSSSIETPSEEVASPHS
UniProt Q6PIZ9: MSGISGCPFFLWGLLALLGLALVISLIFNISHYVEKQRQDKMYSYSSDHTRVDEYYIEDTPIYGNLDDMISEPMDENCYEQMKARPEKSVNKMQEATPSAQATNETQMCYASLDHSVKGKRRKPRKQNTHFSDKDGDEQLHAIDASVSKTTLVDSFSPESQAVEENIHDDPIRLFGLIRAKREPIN
UniProt Q92664: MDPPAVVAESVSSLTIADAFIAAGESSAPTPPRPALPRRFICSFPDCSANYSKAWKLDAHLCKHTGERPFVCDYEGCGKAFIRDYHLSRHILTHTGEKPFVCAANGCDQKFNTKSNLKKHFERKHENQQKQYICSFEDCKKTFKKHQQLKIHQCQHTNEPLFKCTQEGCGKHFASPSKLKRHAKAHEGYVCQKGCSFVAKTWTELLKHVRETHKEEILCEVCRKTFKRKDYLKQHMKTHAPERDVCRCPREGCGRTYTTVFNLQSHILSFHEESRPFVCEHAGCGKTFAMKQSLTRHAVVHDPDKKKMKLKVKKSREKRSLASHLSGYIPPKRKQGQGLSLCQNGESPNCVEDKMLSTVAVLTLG
UniProt Q96AA3: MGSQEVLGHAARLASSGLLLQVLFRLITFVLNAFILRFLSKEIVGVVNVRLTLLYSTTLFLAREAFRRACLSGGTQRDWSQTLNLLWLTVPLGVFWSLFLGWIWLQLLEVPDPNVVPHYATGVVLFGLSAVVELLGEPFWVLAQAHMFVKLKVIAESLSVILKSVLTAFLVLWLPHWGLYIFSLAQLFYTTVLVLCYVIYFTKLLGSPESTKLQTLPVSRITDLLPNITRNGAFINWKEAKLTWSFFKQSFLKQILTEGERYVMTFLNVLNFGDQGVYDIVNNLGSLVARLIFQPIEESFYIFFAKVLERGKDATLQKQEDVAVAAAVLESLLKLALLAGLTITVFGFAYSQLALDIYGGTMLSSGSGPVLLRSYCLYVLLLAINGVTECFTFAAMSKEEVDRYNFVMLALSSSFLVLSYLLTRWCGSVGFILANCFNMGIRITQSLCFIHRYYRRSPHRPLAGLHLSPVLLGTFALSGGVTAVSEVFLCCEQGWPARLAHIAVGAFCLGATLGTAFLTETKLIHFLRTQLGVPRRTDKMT
UniProt Q9Y6E2: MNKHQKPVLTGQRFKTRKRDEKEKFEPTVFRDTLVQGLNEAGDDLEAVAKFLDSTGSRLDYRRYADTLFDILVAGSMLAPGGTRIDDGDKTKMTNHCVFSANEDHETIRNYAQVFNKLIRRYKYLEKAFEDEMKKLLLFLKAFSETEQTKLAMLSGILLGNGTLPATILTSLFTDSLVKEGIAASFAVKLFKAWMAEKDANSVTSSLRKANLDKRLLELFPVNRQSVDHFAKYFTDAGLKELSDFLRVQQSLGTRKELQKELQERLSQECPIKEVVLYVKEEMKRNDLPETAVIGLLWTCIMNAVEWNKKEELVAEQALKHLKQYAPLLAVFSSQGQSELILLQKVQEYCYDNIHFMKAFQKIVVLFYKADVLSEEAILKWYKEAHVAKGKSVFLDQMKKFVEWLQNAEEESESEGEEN
UniProt O75347: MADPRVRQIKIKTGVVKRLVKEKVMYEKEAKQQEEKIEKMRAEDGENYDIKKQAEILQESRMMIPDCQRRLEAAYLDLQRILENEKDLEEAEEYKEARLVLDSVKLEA
UniProt Q53H47: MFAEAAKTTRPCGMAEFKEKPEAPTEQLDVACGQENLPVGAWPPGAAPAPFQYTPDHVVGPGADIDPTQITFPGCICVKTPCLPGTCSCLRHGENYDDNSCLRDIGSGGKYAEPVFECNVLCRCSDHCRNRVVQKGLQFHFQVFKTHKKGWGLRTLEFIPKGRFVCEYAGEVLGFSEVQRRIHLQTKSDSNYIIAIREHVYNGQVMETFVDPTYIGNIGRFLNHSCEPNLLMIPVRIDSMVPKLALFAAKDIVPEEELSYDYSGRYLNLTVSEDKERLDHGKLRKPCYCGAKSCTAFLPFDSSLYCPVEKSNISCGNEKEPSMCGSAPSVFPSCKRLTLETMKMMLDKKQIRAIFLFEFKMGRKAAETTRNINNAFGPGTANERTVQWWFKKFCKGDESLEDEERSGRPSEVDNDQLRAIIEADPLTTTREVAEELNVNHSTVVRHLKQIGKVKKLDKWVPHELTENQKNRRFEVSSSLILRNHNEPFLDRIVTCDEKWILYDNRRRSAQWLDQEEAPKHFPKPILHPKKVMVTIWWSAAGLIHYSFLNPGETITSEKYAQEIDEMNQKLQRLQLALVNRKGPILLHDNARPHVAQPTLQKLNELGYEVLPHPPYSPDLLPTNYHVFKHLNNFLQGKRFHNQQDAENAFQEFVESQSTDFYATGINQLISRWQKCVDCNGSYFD
UniProt Q92925, whole entry: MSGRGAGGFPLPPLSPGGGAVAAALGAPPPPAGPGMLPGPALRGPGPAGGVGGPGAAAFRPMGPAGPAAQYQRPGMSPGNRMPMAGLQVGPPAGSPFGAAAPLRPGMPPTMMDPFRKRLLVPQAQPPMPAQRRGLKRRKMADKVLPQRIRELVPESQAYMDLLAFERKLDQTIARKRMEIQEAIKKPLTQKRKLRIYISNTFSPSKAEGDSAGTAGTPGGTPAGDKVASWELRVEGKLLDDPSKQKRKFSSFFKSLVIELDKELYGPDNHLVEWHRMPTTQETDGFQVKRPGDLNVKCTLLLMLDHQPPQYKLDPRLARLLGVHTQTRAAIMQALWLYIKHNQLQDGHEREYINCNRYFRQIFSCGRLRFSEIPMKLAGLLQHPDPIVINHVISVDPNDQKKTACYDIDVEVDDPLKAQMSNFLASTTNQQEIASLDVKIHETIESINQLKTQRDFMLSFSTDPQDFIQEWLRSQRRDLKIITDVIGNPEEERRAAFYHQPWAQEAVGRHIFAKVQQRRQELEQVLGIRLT

Compound: Nc1nc2c(ncn2[C@@H]2O[C@H](COP(=O)(O)OP(=O)(O)OP(=O)(O)O)[C@@H](O)[C@H]2O)c(=O)[nH]1 [guanosine triphosphate]
Assay: NP40-soluble protein abundance relative to vehicle (solubility fold change) (ratio); higher = more soluble protein in presence of GTP
In short: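 Across three independent experiments, values are fold changes against the detergent-processed vehicle for each replicate, based on vsn-normalised intensities. The samples were Jurkat crude lysate treated with eight concentrations (0.1 to 10 mM) for 10 min at room temperature and then 3 min at 37 °C. Lysate was solubilised with 0.8% NP40 and benzonase, ultracentrifuged, and the supernatant analysed by TMT-labelled LC-MS/MS.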

Target	NP40-soluble protein abundance (concentration: 0.1mM)	NP40-soluble protein abundance (concentration: 0.5mM)	NP40-soluble protein abundance (concentration: 1mM)	NP40-soluble protein abundance (concentration: 2mM)	NP40-soluble protein abundance (concentration: 4mM)	NP40-soluble protein abundance (concentration: 6mM)	NP40-soluble protein abundance (concentration: 8mM)	NP40-soluble protein abundance (concentration: 10mM)
C9JRJ5 and related entries (UniProt Q9UGP4)	1.01 ± 0.054	1 ± 0.021	1 ± 0.043	0.955 ± 0.025	0.963 ± 0.031	0.962 ± 0.021	1.01 ± 0.038	0.965 ± 0.034
D6RIF6 and related entries (UniProt Q9P270)	1.02 ± 0.043	0.944 ± 0.019	1.04 ± 0.06	1.07 ± 0.024	1.06 ± 0.034	1.06 ± 0.033	1.11 ± 0.073	1.13 ± 0.058
A8MVZ6 and related entries (UniProt Q96G01)	0.975 ± 0.048	0.945 ± 0.057	0.988 ± 0.048	0.98 ± 0.1	1 ± 0.074	0.949 ± 0.04	0.987 ± 0.028	0.978 ± 0.045
A9IYQ1 and related entries (UniProt Q9NTI5)	1.01 ± 0.015	1.03 ± 0.024	1.01 ± 0.015	0.995 ± 0.036	1.01 ± 0.035	1.01 ± 0.052	1.02 ± 0.08	0.992 ± 0.041
E5RHW4 and related entries (UniProt O94905)	1.01 ± 0.051	1.1 ± 0.085	1.13 ± 0.12	1.22 ± 0.16	1.29 ± 0.22	1.3 ± 0.25	1.3 ± 0.29	1.3 ± 0.32
D6RJ07 and related entries (UniProt Q9UL40)	0.93 ± 0.064	0.87 ± 0.038	1.2 ± 0.063	1.17 ± 0.014	1.21 ± 0.094	1.21 ± 0.13	1.18 ± 0.18	1.26 ± 0.12
B0QY89 and related entries (UniProt Q9Y262)	1.08 ± 0.062	1.09 ± 0.09	1.06 ± 0.1	1.17 ± 0.19	1.33 ± 0.28	1.47 ± 0.34	1.57 ± 0.29	1.75 ± 0.35
E7EMP6 and related entries (UniProt Q96FZ2)	0.9812 ± 0.0021	0.991 ± 0.032	0.959 ± 0.02	0.979 ± 0.065	0.959 ± 0.074	0.945 ± 0.045	0.988 ± 0.038	0.962 ± 0.031
E5RJF8 and related entries (UniProt O15182)	0.945 ± 0.051	0.965 ± 0.05	1 ± 0.039	0.949 ± 0.063	0.943 ± 0.015	1 ± 0.025	0.993 ± 0.077	0.965 ± 0.019
D4Q8H0 and related entries (UniProt Q9NYL2+D4Q8H0)	1.07 ± 0.079	1.03 ± 0.12	0.947 ± 0.051	0.965 ± 0.051	0.987 ± 0.073	1.05 ± 0.024	0.93 ± 0.14	0.981 ± 0.081
B8ZZA8 and related entries (UniProt O94925)	1.03 ± 0.025	1.02 ± 0.02	0.942 ± 0.021	0.953 ± 0.027	0.946 ± 0.028	0.917 ± 0.024	0.891 ± 0.039	0.896 ± 0.046
A8MXF6 and related entries (UniProt Q9UNT1+Q9UBK7+B7ZBD5+A8MXF6)	1.03 ± 0.038	1.03 ± 0.035	1.02 ± 0.032	1.01 ± 0.084	0.947 ± 0.046	0.955 ± 0.071	0.949 ± 0.053	0.94158 ± 0.00038
D6R938 and related entries (UniProt Q13557)	1 ± 0.11	1.04 ± 0.14	1.07 ± 0.14	1.08 ± 0.15	1.1 ± 0.1	1.13 ± 0.1	1.09 ± 0.17	1.14 ± 0.14
B5MCH3 and related entries (UniProt Q8N3C7)	1.1 ± 0.068	1.2 ± 0.18	1.22 ± 0.23	1.3 ± 0.19	1.3 ± 0.18	1.37 ± 0.39	1.41 ± 0.27	1.32 ± 0.3
C9JF66 and related entries (UniProt Q6PIZ9)	1.15 ± 0.2	1.079 ± 0.0057	1.072 ± 0.0092	1.14 ± 0.13	1.15 ± 0.14	1.09 ± 0.025	1.15 ± 0.042	1.14 ± 0.19
D3YTB5 and related entries (UniProt P51617)	1.09 ± 0.052	1.09 ± 0.077	1.22 ± 0.07	1.08 ± 0.083	1.12 ± 0.1	1.17 ± 0.12	1.21 ± 0.032	1.17 ± 0.038
B7ZBK4 and related entries (UniProt Q92664)	1.05 ± 0.081	1.06 ± 0.12	1.02 ± 0.12	1.02 ± 0.14	1.02 ± 0.16	1.01 ± 0.16	1.04 ± 0.11	1.02 ± 0.16
C9J2Y9 and related entries (UniProt P30876)	1.09 ± 0.1	1.15 ± 0.15	1.07 ± 0.15	1.15 ± 0.21	1.12 ± 0.18	1.1 ± 0.18	1.09 ± 0.17	1.04 ± 0.15
D6REA0 and related entries (UniProt O75879)	0.993 ± 0.031	0.984 ± 0.035	0.939 ± 0.032	0.947 ± 0.043	0.915 ± 0.042	0.908 ± 0.027	0.928 ± 0.023	0.912 ± 0.043
B5MDE0 and related entries (UniProt Q96AA3)	1.1 ± 0.038	1.03 ± 0.062	0.969 ± 0.032	0.949 ± 0.071	0.944 ± 0.046	0.907 ± 0.065	0.879 ± 0.025	0.853 ± 0.054
B5MCH7 and related entries (UniProt Q9Y6E2)	0.967 ± 0.016	0.939 ± 0.033	0.928 ± 0.022	0.88 ± 0.032	0.871 ± 0.051	0.864 ± 0.048	0.863 ± 0.059	0.839 ± 0.059
E5RIW3 and related entries (UniProt O75347)	0.955 ± 0.1	0.984 ± 0.12	0.956 ± 0.15	0.852 ± 0.15	0.835 ± 0.15	0.871 ± 0.19	0.873 ± 0.11	0.868 ± 0.11
B8ZZU6 and related entries (UniProt P15336)	0.868 ± 0.086	0.907 ± 0.044	0.969 ± 0.14	0.943 ± 0.078	0.899 ± 0.011	0.899 ± 0.045	0.906 ± 0.1	0.955 ± 0.078
B9ZVV8 and related entries (UniProt Q53H47)	1.09 ± 0.061	1.03 ± 0.033	1.04 ± 0.081	1.01 ± 0.073	1.01 ± 0.058	1.02 ± 0.057	1.02 ± 0.041	1.01 ± 0.11
B9EGA3 and related entries (UniProt Q92925)	1.03 ± 0.038	1.06 ± 0.052	1.11 ± 0.12	1.16 ± 0.17	1.24 ± 0.2	1.17 ± 0.2	1.17 ± 0.19	1.19 ± 0.19
B7Z6D5 and related entries (UniProt Q96GQ7)	0.963 ± 0.084	0.975 ± 0.031	1.06 ± 0.043	1.06 ± 0.047	1.13 ± 0.052	1.21 ± 0.13	1.22 ± 0.16	1.42 ± 0.23

Record cards, as listed above. Values in the order: NP40-soluble protein abundance (concentration: 0.1mM) | NP40-soluble protein abundance (concentration: 0.5mM) | NP40-soluble protein abundance (concentration: 1mM) | NP40-soluble protein abundance (concentration: 2mM) | NP40-soluble protein abundance (concentration: 4mM) | NP40-soluble protein abundance (concentration: 6mM) | NP40-soluble protein abundance (concentration: 8mM) | NP40-soluble protein abundance (concentration: 10mM)
B8ZZA8 and related entries (UniProt O94925) is listed with 1.03 ± 0.025 | 1.02 ± 0.02 | 0.942 ± 0.021 | 0.953 ± 0.027 | 0.946 ± 0.028 | 0.917 ± 0.024 | 0.891 ± 0.039 | 0.896 ± 0.046
B7ZBK4 and related entries (UniProt Q92664) is listed with 1.05 ± 0.081 | 1.06 ± 0.12 | 1.02 ± 0.12 | 1.02 ± 0.14 | 1.02 ± 0.16 | 1.01 ± 0.16 | 1.04 ± 0.11 | 1.02 ± 0.16
